Experimental findings from PubChem BioAssay AID330 (DTP/NCI, 2004) are described below.

The subject of the test is P388 leukemia ip, CD2F1 mice, survival T/C. The test is described as follows: NCI In Vivo Anticancer Drug Screen. Data for tumor model P388 Leukemia (intraperitoneal) in CD2F1 (CDF1) mice. Particulars: T/C endpoint: median survival time, higher T/C = longer survival.
[1] abbreviates: dose: 25.0 mg/kg/injection, schedule: Q01DX005 (ip), vehicle: saline.
Setting [2] is: dose: 50.0 mg/kg/injection, schedule: Q01DX005 (ip), vehicle: saline.
Where [3] appears, read: dose: 100.0 mg/kg/injection, schedule: Q01DX005 (ip), vehicle: saline.
Setting [4] is: dose: 200.0 mg/kg/injection, schedule: Q01DX005 (ip), vehicle: saline.
Where [5] appears, read: dose: 0.75 mg/kg/injection, schedule: Q01DX009 (ip), vehicle: Klucel (hydroxypropylcellulose) (HPC).
Where [6] appears, read: dose: 1.5 mg/kg/injection, schedule: Q01DX009 (ip), vehicle: Klucel (hydroxypropylcellulose) (HPC).
[7] abbreviates: dose: 3.0 mg/kg/injection, schedule: Q01DX009 (ip), vehicle: Klucel (hydroxypropylcellulose) (HPC).
Setting [8] is: dose: 400.0 mg/kg/injection, schedule: Q01DX009 (ip), vehicle: saline with Tween-80.
Setting [9] is: dose: 50.0 mg/kg/injection, schedule: Q01DX009 (ip), vehicle: saline with Tween-80.
The mark [10] stands for this setting: dose: 100.0 mg/kg/injection, schedule: Q01DX009 (ip), vehicle: saline with Tween-80.
The mark [11] stands for this setting: dose: 200.0 mg/kg/injection, schedule: Q01DX009 (ip), vehicle: saline with Tween-80.
Where [12] appears, read: dose: 6.25 mg/kg/injection, schedule: Q01DX005 (ip), vehicle: saline.
Setting [13] is: dose: 12.5 mg/kg/injection, schedule: Q01DX005 (ip), vehicle: saline.

The list is a part of this screen's results and no random one: it is rich in T/C values a quarter to a half above the control, in often repeated tests (any T/C) and in doses without a T/C. Further doses and runs are listed elsewhere. T/C gives the treated animals as a percentage of the vehicle group. Some doses have a count of surviving animals in place of a T/C: the source files T/C as zero there, which appears to mark a toxic dose or a test without result, not a measured value. Some survivor counts are full or nearly so, which does not show that the dose was tolerated: the source hardly ever lists a survival T/C far under the control, and the zero likely stands for such cases as well. Survivors were counted at the toxicity check, usually on the fifth day, unless a day is given; later deaths do not show. Schedules are NCI's codes, taken here to give the interval after Q, in days (D) or hours (H), and the number of doses after X. Some entries hold several experiments; their values stand side by side, smallest first. Where survival is the endpoint, this PubChem deposit counts one and a half times the control or more as active, and values a quarter to a half above the control carry no call in these data; other NCI protocols may use other cut-offs. Some T/C values carry the count of animals alive at the toxicity check (mostly the fifth day); where none is given, no animal had died by that day.

As for `CCN(CC)c1ccc(/C=N/Nc2c3c(nc4ccccc24)CCCC3)cc1`, the survivor count under setting [1] is 5 of 6, the survivor count under setting [2] was 1 of 6, the survivor count under setting [3] is reported as 0 of 6 and the survivor count under setting [4] is listed as 0 of 6.
For the compound `C=C(OC1C(C)=C2C(C1OC(=O)CCCCCCC)C(C)(OC(C)=O)CC(OC(=O)CCC)C1(O)C2OC(=O)C1(C)O)/C(C)=C/C` (stereo not given), the T/C was 87, 103, 108, 109 % of control (dose: 0.37 mg/kg/injection, schedule: Q01DX009 (ip), vehicle: Klucel (hydroxypropylcellulose) (HPC)); 108, 111, 114 % of control under setting [5]; 90 [5 of 6 alive] and 126 % of control under setting [6]; 126 % of control [5 of 6 alive] under setting [7]. Moreover, the survivor count is given as 5 of 6 under setting [5]; 6 of 6 under setting [6]; 1 of 6, 3 of 6, 4 of 6 under setting [7].
In the case of `C=C1C(=O)OC2/C=C(\C)C3OC3/C=C(/C(=O)OC)C(OC(C)=O)C(OC(=O)C(C)(O)C(C)OC(C)=O)C12` (stereo not given), the T/C under setting [7] is 125 and 129 % of control; the T/C (dose: 6.0 mg/kg/injection, schedule: Q01DX009 (ip), vehicle: Klucel (hydroxypropylcellulose) (HPC)) was 126 and 140 % of control; the T/C (dose: 12.0 mg/kg/injection, schedule: Q01DX009 (ip), vehicle: Klucel (hydroxypropylcellulose) (HPC)) is 138 and 140 % of control. Moreover, the survivor count was 3 of 6 (dose: 24.0 mg/kg/injection, schedule: Q01DX009 (ip), vehicle: Klucel (hydroxypropylcellulose) (HPC)); 0 of 6 (dose: 48.0 mg/kg/injection, schedule: Q01DX009 (ip), vehicle: Klucel (hydroxypropylcellulose) (HPC)); 0 of 6 (dose: 96.0 mg/kg/injection, schedule: Q01DX009 (ip), vehicle: Klucel (hydroxypropylcellulose) (HPC)).
For the compound `O=C(OC1C2CCC2C2CC21)c1ccc([N+](=O)[O-])cc1[N+](=O)[O-]` (stereo not given), the survivor count (dose: 50.0 mg/kg/injection, schedule: Q01DX009 (ip), vehicle: saline) is recorded as 4 of 6.
Consider `COc1cc(OC)c(C(C)=O)c(OC)c1OC`, for which the survivor count under setting [8] is given as 3 of 6.
In the case of `COC(=Nc1ccccc1)SSC(C)C`, the T/C under setting [9] was 133 % of control and the T/C under setting [10] was 146 % of control. The survivor count reads like this: under setting [10], 5 of 6; under setting [11], 1 of 6 and 3 of 6.
`CNC1CCc2cc(OC)ccc21` (stereo not given): the survivor count (dose: 200.0 mg/kg/injection, schedule: Q01DX001 (ip), vehicle: Klucel (hydroxypropylcellulose) (HPC)) is on record as 1 of 6.
For `Clc1ccc(N=Cc2c3ccccc3cc3ccccc23)c(Cl)c1`, the survivor count runs as follows: under setting [9], 6 of 6; under setting [10], 6 of 6; under setting [11], 5 of 6.
`C[N+]1(C)CCN(Cc2ccc3c(c2)CCc2ccccc2N3)CC1`: the survivor count was 0 of 6 (dose: 15.0 mg/kg/injection, schedule: Q01DX005 (ip), vehicle: saline); 0 of 6 (dose: 60.0 mg/kg/injection, schedule: Q01DX005 (ip), vehicle: saline); 0 of 6 (dose: 120.0 mg/kg/injection, schedule: Q01DX005 (ip), vehicle: saline); 0 of 6 (dose: 240.0 mg/kg/injection, schedule: Q01DX005 (ip), vehicle: saline).
For `CCCCCCCCCCCCCCCCN1C(=O)/C(=C\c2ccc(O)cc2)SC1=Nc1ccccc1`, the survivor count under setting [10] was 6 of 6.
For the compound `CC1CN1P(=O)(N1CCCCCC1)N1CC1C` (stereo not given), the T/C runs as follows: (dose: 25.0 mg/kg/injection, schedule: Q01DX009 (ip), vehicle: saline) 127 % of control; (dose: 44.0 mg/kg/injection, schedule: Q04DX003 (ip), vehicle: saline) 133 % of control; (dose: 50.0 mg/kg/injection, schedule: Q04DX003 (ip), vehicle: saline) 133 % of control; (dose: 66.0 mg/kg/injection, schedule: Q04DX003 (ip), vehicle: saline) 141 % of control. For the same compound, the survivor count by setting is: (dose: 100.0 mg/kg/injection, schedule: Q01DX009 (ip), vehicle: saline) 6 of 6; (dose: 150.0 mg/kg/injection, schedule: Q04DX003 (ip), vehicle: saline) 6 of 6.
`BrCC[N+]12CC[N+](CCBr)(CC1)C2` (tested in a mixture with another compound): the T/C (dose: 20.0 mg/kg/injection, schedule: Q04DX003 (ip), vehicle: water) is 125 % of control; the T/C (dose: 40.0 mg/kg/injection, schedule: Q04DX003 (ip), vehicle: water) was 140 % of control; the T/C (dose: 75.0 mg/kg/injection, schedule: Q04DX003 (ip), vehicle: water) is 126 % of control; the T/C (dose: 150.0 mg/kg/injection, schedule: Q04DX003 (ip), vehicle: water) was 148 % of control; the T/C (dose: 320.0 mg/kg/injection, schedule: Q04DX003 (ip), vehicle: distilled water + Tween-80) is 131 % of control [4 of 6 alive]. Also, the survivor count by setting is: (dose: 200.0 mg/kg/injection, schedule: Q04DX003 (ip), vehicle: water) 4 of 6; (dose: 400.0 mg/kg/injection, schedule: Q04DX003 (ip), vehicle: water) 0 of 6.
Take `CC[N+](C)(CC)c1ccccc1`: the survivor count (dose: 100.0 mg/kg/injection, schedule: Q04DX002 (ip), vehicle: saline) is listed as 0 of 6.
Turning to `Clc1cc[c]([Sn]([Cl])([O][Sn]([Cl])([c]2ccc(Cl)cc2)[c]2ccc(Cl)cc2)[c]2ccc(Cl)cc2)cc1`, the T/C under setting [12] is 145 % of control, the T/C under setting [13] was 146 % of control and the T/C under setting [1] was 129 % of control. For the same compound, the survivor count by setting is: under setting [2], 4 of 6; under setting [3], 3 of 6; under setting [4], 0 of 6.
On to `CC(=O)N1CC(=O)NC1=S`, for which the survivor count under setting [8] is given as 5 of 6.
Turning to `C1CN1P1(N2CC2)=NP(N2CC2)(N2CC2)=NP(N2CC2)(N2CC2)=NP(N2CC2)(N2CC2)=N1`, the survivor count reads like this: (dose: 20.0 mg/kg/injection, schedule: Q01DX009 (ip), vehicle: saline) 6 of 6; (dose: 40.0 mg/kg/injection, schedule: Q01DX009 (ip), vehicle: saline) 6 of 6.
Take `CC1(c2cccc[n+]2Cc2ccc(Cl)c(Cl)c2)OCCO1`: under setting [2], the survivor count is on record as 3 of 5.
As to `NC(N)=NN=c1/c(=N\N=C(N)N)c2ccccc2/c1=N/N=C(N)N`, the survivor count (dose: 50.0 mg/kg/injection, schedule: Q01DX001 (ip), vehicle: saline) is on record as 2 of 6 and the survivor count (dose: 100.0 mg/kg/injection, schedule: Q01DX001 (ip), vehicle: saline) is given as 0 of 6.
Consider `CCc1nnc2c(C)c(C)nc(C)n12`, for which the survivor count (dose: 400.0 mg/kg/injection, schedule: Q04DX003 (ip), vehicle: saline with Tween-80) is 3 of 6.
`CC(C)=CCC/C(C)=C/COC(=O)C=[N+]=[N-]`: the T/C under setting [10] was 126 % of control.
On to `COc1cc2c(c3c1c(=O)c1cc(F)ccc1n3C)C=CC(C)(C)O2`, for which the survivor count (dose: 50.0 mg/kg/injection, schedule: Q01DX005 (ip), vehicle: Klucel (hydroxypropylcellulose) (HPC)) was 6 of 6.
Consider `Cc1ccc(/C=C/C(=O)C(CN(C)C)CN(C)C)cc1`, for which the survivor count runs as follows: under setting [12], 2 of 6 and 3 of 6; under setting [13], 0 of 6; under setting [1], 0 of 6; under setting [2], 0 of 6; under setting [3], 0 of 6; under setting [4], 0 of 6.
For the compound `Fc1c2ccccc2c2ccc3cccc4ccc1c2c43`, the T/C was 135 % of control (dose: 200.0 mg/kg/injection, schedule: Q04DX002 (ip), vehicle: saline with Tween-80) and 135 % of control (dose: 400.0 mg/kg/injection, schedule: Q04DX002 (ip), vehicle: saline with Tween-80). Further, the survivor count (dose: 400.0 mg/kg/injection, schedule: Q04DX002 (ip), vehicle: saline) is listed as 0 of 6.
